Test results: PubChem BioAssay AID493014 (National Center for Advancing Translational Sciences (NCATS), 2011)
Some of the results follow. Shown are side measurements of this screen, not its main read-out; they come without a call. The list favours compounds with an active or inconclusive main result. Words in brackets tell the shape of the fitted curve; partial curves, single points and poor fits give uncertain potencies.

Assay: qHTS Assay to Find Inhibitors of Chronic Active B-Cell Receptor Signaling
Details: ABC-DLBCL IkBa-CBG/CBR reporter, luminescence ratio (green luciferase fused to IkBa over red control in TMD8 lymphoma cells), 4 h
In short: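 Concentration-response series (up to 46 uM) were applied to TMD8 dual-reporter cells for 4 h at 37C with doxycycline. Green/red ratio, after filter-overlap correction, defined %Activity; red signal alone was normalised to basal cells and zero luminescence.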

[1] = measured here: CBR red luminescence, cell number
[2] = measured here: IkBa-CBG green luminescence

Compound | AC50 [1] | AC50 [2]
Cc1ccc(NC(=O)c2cc(N3C(=O)C=CC3=O)ccc2N2CCOCC2)cc1Cl | 14.6 µM [falling, partial curve] | –
COc1cccc(OC)c1C(=O)Nc1ccccc1N1CCCCC1 | 0.794 µM [rising, full curve] | –
CNC(=O)CC1C(=O)N(c2ccc(Cl)cc2)C(=S)N1CCc1ccc(OC)c(OC)c1 (centres undefined) | 35.5 µM [falling, single point] | 10 µM [falling, partial curve, poor fit]
CCNC(=S)N(Cc1ccco1)Cc1cc2cc(OCC)ccc2[nH]c1=O | 11.2 µM [falling, partial curve, poor fit] | –
O=C1CN(S(=O)(=O)c2cccc(Br)c2)CCN1 | 29.1 µM [rising, single point] | –
CCOC(=O)c1cc(=O)n2[nH]c(-c3ccc(C)cc3)cc2n1 | 2.06 µM [falling, full curve, poor fit] | –
O=C(Cc1ccccc1)NCC(=O)Nc1cccc(Br)c1 | 15.8 µM [falling, partial curve, poor fit] | –
CCOC(=O)c1nc(Nc2cc(C)cc(C)c2)c2ccccc2n1 | 0.282 µM [rising, full curve, poor fit] | –
CC(=O)c1ccc(NC(=O)C2(S(=O)(=O)c3ccccc3)CC2)cc1 | 5.62 µM [rising, single point] | –
O=C(NCc1ccccc1)C(c1ccco1)N(C(=O)c1ccccn1)c1ccc(F)cc1 (centres undefined) | 20 µM [falling, single point] | –
CC(=O)c1cccc(N(C(=O)c2ccco2)C(C(=O)NC2CCCCC2)c2ccc(C)o2)c1 (centres undefined) | 20 µM [falling, single point] | –
O=C(COC(=O)CCCc1nc2ccccc2s1)NC(=O)NCc1ccco1 | 3.16 µM [rising, single point] | –
Cc1cc(Cl)ccc1OCCCC(=O)N1CCOCC1 | 8.91 µM [rising, partial curve, poor fit] | –
CCc1nc(Nc2ccc(OC)cc2OC)c2oc3ccccc3c2n1 | 17.8 µM [rising, single point] | –
CCC1=NN2C(=N)/C(=C\c3ccc(OCCOc4ccc(NC(C)=O)cc4)cc3)C(=O)N=C2S1 | 11.2 µM [rising, partial curve, poor fit] | –
COc1ccccc1NC(=O)Nc1ccc2c(c1)CCC2 | 17.8 µM [falling, single point] | –
Cc1cc(OC(C)C(=O)NNC(=O)Nc2ccc(F)cc2F)cc(C)c1Cl (centres undefined) | 35.5 µM [falling, single point] | –
N#CC1=C(N)C(C#N)(C#N)C2(C(=O)Nc3ccccc32)C2CCCC=C12 (centres undefined) | 11.2 µM [falling, partial curve, poor fit] | –
O=C(Nc1ccc2nc3n(c(=O)c2c1)CCCC3)c1cccc(F)c1 | 35.5 µM [falling, single point] | –
COc1ccc(C(CNc2ncnc3sccc23)N(C)C)cc1OC (centres undefined) | 0.2 µM [falling, full curve, poor fit] | –
C=CCn1c(=O)[nH]c2cc(C(=O)N3CC=C(c4ccccc4)CC3)ccc2c1=O | 10 µM [falling, partial curve] | –

Compound | AC50 [1] | AC50 [2]
O=C(Cn1c(=O)oc2cc(S(=O)(=O)N3CCCCCC3)ccc21)NC1CCCCC1 | 29.1 µM [rising, single point] | –
Cc1ccc(NC(=O)c2cc3ccccc3o2)cc1 | 12.6 µM [falling, single point] | –
COc1ccc(-c2noc(C3CCCN(S(=O)(=O)c4cccc(Cl)c4C)C3)n2)cc1OC (centres undefined) | 35.5 µM [rising, partial curve, poor fit] | –
CSc1ccccc1NC(=O)Nc1ccccc1Cl | 7.08 µM [falling, full curve] | –
COc1cccc2cc(C(=O)c3ccccc3)oc12 | 11.2 µM [falling, partial curve] | –
O=C(CCl)Nc1cc(SCC(O)CO)cc([N+](=O)[O-])c1 (centres undefined) | 8.91 µM [falling, partial curve] | –
Cc1ccc2nc3sc(C(=O)N4CCOCC4)c(N)c3cc2c1 | 1.41 µM [falling, partial curve] | –
Cc1cc(S(=O)(=O)Nc2c(NC3CCCCC3)c3ccccc3oc2=O)ccc1F | 14.1 µM [falling, partial curve, poor fit] | –
COc1ccc(C(=O)Nc2nc(N3C(=O)c4ccccc4C3=O)n(-c3ccccc3)n2)cc1 | 2.59 µM [falling, partial curve, poor fit] | –
Cc1cccc(C)c1OCC(=O)N/N=C/c1cccn1C | 25.9 µM [rising, single point] | 29.1 µM [falling, single point]
CCc1c(C)sc(NC(=O)c2cccs2)c1C(N)=O | 0.291 µM [rising, partial curve, poor fit] | –
CCc1ccc(/C=N/NC(=S)NCCc2ccccc2)cc1 | 29.1 µM [rising, single point] | –
COc1cc(/C=N/NC(=Nc2ccc(C)cc2)c2nc3ccccc3s2)ccc1O | 7.31 µM [falling, partial curve] | 16.4 µM [rising, partial curve, poor fit]
Cc1ccc2oc(=S)n(C)c2c1 | 29.1 µM [rising, single point] | –
O=C(CN1CCc2ccccc2C1)N1CCN(S(=O)(=O)c2ccccc2)CC1 | 6.51 µM [rising, single point] | –
N#C/C(=C\c1cccs1)Sc1nc2ccccc2s1 | 0.58 µM [rising, partial curve] | –
CN(C)S(=O)(=O)c1ccc(C(=O)NNC(=O)C2COc3ccccc3O2)cc1 (centres undefined) | 7.94 µM [rising, partial curve, poor fit] | –
O=C(NC1CCCCC1)c1ccc(-c2ccccc2[N+](=O)[O-])o1 | 35.5 µM [falling, single point] | –
CSc1nc(N)nc(SCC(=O)C23CC4CC(CC(C4)C2)C3)c1C#N | 20.6 µM [falling, single point] | 8.2 µM [rising, partial curve, poor fit]
CCn1nc(C)cc1-c1nnc(Sc2ncc([N+](=O)[O-])s2)n1C | 5.62 µM [rising, partial curve, poor fit] | 5.01 µM [falling, single point]
O=C(Nc1nc2ccc([N+](=O)[O-])cc2s1)c1ccc(S(=O)(=O)N2CCCc3ccccc32)cc1 | 0.224 µM [rising, full curve, poor fit] | –

Compound | AC50 [1] | AC50 [2]
CN(C)CCCNC(=O)c1ccc(/C=N/O)nc1 | 15.8 µM [falling, partial curve] | –
CCOCCCNC(=O)C(NC(=O)c1ccc(=O)[nH]c1)c1ccc(Cl)cc1 (centres undefined) | 0.651 µM [falling, partial curve, poor fit] | –
Cc1c(C(=O)N2CC(C)OC(C)C2)sc2nc(-c3ccc(F)cc3)cn12 (centres undefined) | 35.5 µM [falling, single point] | –
O=C(CSc1ccccc1)NCc1ccccc1 | 35.5 µM [rising, single point] | –
O=C(CSc1nc2cc(Cl)ccc2s1)NCC1CCCO1 (centres undefined) | 29.1 µM [rising, partial curve, poor fit] | –
Oc1ccc(Nc2nc(-c3cccnc3)cs2)cc1 | 15.8 µM [falling, single point] | 12.6 µM [falling, partial curve]
COc1ccc(NC(=O)CN(C)C(=O)CCSc2ccc(C)cc2)cc1 | 29.1 µM [falling, single point] | –
COc1ccc(C2=NOC(C(=O)N(C)Cc3ccccc3)C2)cc1 (centres undefined) | 17.8 µM [falling, partial curve, poor fit] | –
CCc1cccc2c(-c3csc(=NC)n3C)c[nH]c12 | 28.2 µM [falling, single point] | –
O=C1c2ccccc2C(Nc2ccc(S(=O)(=O)N3CCCCC3)cc2)N1Cc1ccco1 (centres undefined) | 23.1 µM [falling, single point] | –
CCCc1c(C(=O)OCC)sc(N)c1C#N | 0.0891 µM [falling, full curve, poor fit] | –
O=S(=O)(c1cnc(Cl)c(Br)c1)N1CCc2ccccc21 | 7.94 µM [falling, partial curve, poor fit] | –
CC(Cc1cccs1)NC(=O)c1cccc(Cl)c1 (centres undefined) | 3.26 µM [rising, full curve, poor fit] | –
CCCCn1c(SCc2ncc(-c3ccccc3)o2)nc2cc(S(N)(=O)=O)ccc21 | 35.5 µM [falling, single point] | –
Cc1ccc(S(=O)(=O)Nc2ccc(NC(=O)CN3CCCCC3)cc2)cc1 | 29.1 µM [rising, single point] | –
CCOc1ccccc1NC(=O)CSc1nnc(-c2cnccn2)n1C | 17.8 µM [falling, single point] | –
Cc1cc(C)nc(NC(=O)c2cc(-c3ccc(C)s3)nc3ccccc23)c1 | 1.03 µM [rising, full curve, poor fit] | –
Cn1ncc(C#N)c1/N=C/N1CCCCCC1 | 11.2 µM [falling, single point] | –
COc1cc(OC)c(OC)cc1/C=N/n1c(-c2n[nH]c3c2CCC3)n[nH]c1=S | 1.41 µM [rising, full curve, poor fit] | –
CCCc1cc(=O)oc2cc(OCc3ccc(C(=O)O)o3)ccc12 | 15.8 µM [falling, single point] | –
Cc1ccn2cc(C(=O)Nc3ccc4c(c3)OCCO4)nc2c1 | 25.1 µM [falling, single point] | –

Quoted from the listing:
In AC50 [1], Cc1ccc2oc(=S)n(C)c2c1 has 29.1 µM [rising, single point]
In AC50 [1], CCOC(=O)c1nc(Nc2cc(C)cc(C)c2)c2ccccc2n1 has 0.282 µM [rising, full curve, poor fit]
In AC50 [1], CCCc1cc(=O)oc2cc(OCc3ccc(C(=O)O)o3)ccc12 has 15.8 µM [falling, single point]
